# Test results as given in the supplement of paper PMC8728848.
# This is one part of the list.
# What was measured:
# Test in all cases: glycan array binding signal (z-score within array); higher = stronger binding
# Conditions in all cases: glycan notation: IUPAC condensed, linker removed
# [1] = biological target: Fuc(a1-2)[Gal(a1-3)]Gal(b1-4)GlcNAc(b1-2)Man(a1-3)[Fuc(a1-2)[Gal(a1-3)]Gal(b1-4)GlcNAc(b1-2)Man(a1-6)]Man(b1-4)GlcNAc(b1-4)GlcNAc
# Summary of the method: (§1)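 Glycan array data were curated from 3228 arrays in the Consortium for Functional Glycomics database and kept only where the protein sequence was available. Glycan names were converted to IUPAC-condensed notation, and columns mapping to the same glycan were averaged. The binding signal is a within-array Z-score, averaged across arrays of the same protein sequence at different concentrations or buffers and across linkers. Negative Z-scores can be read as non-binding.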
# [2] = biological target: Fuc(a1-2)[Gal(a1-3)]Gal(b1-4)GlcNAc(b1-2)Man(a1-3)[Fuc(a1-2)[Gal(a1-3)]Gal(b1-4)GlcNAc(b1-2)Man(a1-6)]Man(b1-4)GlcNAc(b1-4)[Fuc(a1-6)]GlcNAc
# Summary of the method: as §1
# [3] = biological target: Fuc(a1-2)[Gal(a1-3)]Gal(b1-4)GlcNAc(b1-3)GalNAc
# Summary of the method: as §1
# [4] = biological target: Fuc(a1-2)[Gal(a1-3)]Gal(b1-4)GlcNAc(b1-3)[Fuc(a1-2)[Gal(a1-3)]Gal(b1-4)GlcNAc(b1-6)]GalNAc
# Summary of the method: as §1
# [5] = biological target: Fuc(a1-2)[Gal(a1-3)]Gal(b1-4)GlcNAc(b1-6)GalNAc
# Summary of the method: as §1
# [6] = biological target: Fuc(a1-2)[Gal(a1-3)]Gal(b1-4)[Fuc(a1-3)]Glc
# Summary of the method: as §1
# [7] = biological target: Fuc(a1-2)[Gal(a1-3)]Gal(b1-4)[Fuc(a1-3)]GlcNAc
# Summary of the method: as §1
# [8] = biological target: Fuc(a1-2)[Gal(a1-3)]Gal(b1-4)[Fuc(a1-3)]GlcNAc(b1-3)GalNAc
# Summary of the method: as §1
# [9] = biological target: Fuc(a1-2)[Gal(a1-4)]Gal(b1-4)GlcNAc
# Summary of the method: as §1
# [10] = biological target: Fuc(a1-2)[GalNAc(a1-3)]Gal
# Summary of the method: as §1
# [11] = biological target: Fuc(a1-2)[GalNAc(a1-3)]Gal(b1-3)GalNAc(a1-3)[Fuc(a1-2)]Gal(b1-4)GlcNAc
# Summary of the method: as §1
# [12] = biological target: Fuc(a1-2)[GalNAc(a1-3)]Gal(b1-3)GalNAc(b1-3)Gal(a1-4)Gal(b1-4)Glc
# Summary of the method: as §1
# [13] = biological target: Fuc(a1-2)[GalNAc(a1-3)]Gal(b1-3)GlcNAc
# Summary of the method: as §1
# [14] = biological target: Fuc(a1-2)[GalNAc(a1-3)]Gal(b1-3)GlcNAc(b1-2)Man(a1-3)[Fuc(a1-2)[GalNAc(a1-3)]Gal(b1-3)GlcNAc(b1-2)Man(a1-6)]Man(b1-4)GlcNAc(b1-4)GlcNAc
# Summary of the method: as §1
# [15] = biological target: Fuc(a1-2)[GalNAc(a1-3)]Gal(b1-3)GlcNAc(b1-2)Man(a1-3)[Fuc(a1-2)[GalNAc(a1-3)]Gal(b1-3)GlcNAc(b1-2)Man(a1-6)]Man(b1-4)GlcNAc(b1-4)[Fuc(a1-6)]GlcNAc
# Summary of the method: as §1
# [16] = biological target: Fuc(a1-2)[GalNAc(a1-3)]Gal(b1-3)GlcNAc(b1-3)GalNAc
# Summary of the method: as §1
# [17] = biological target: Fuc(a1-2)[GalNAc(a1-3)]Gal(b1-3)GlcNAc(b1-6)GalNAc
# Summary of the method: as §1
# [18] = biological target: Fuc(a1-2)[GalNAc(a1-3)]Gal(b1-4)Glc
# Summary of the method: as §1
# [19] = biological target: Fuc(a1-2)[GalNAc(a1-3)]Gal(b1-4)GlcNAc
# Summary of the method: as §1
# [20] = biological target: Fuc(a1-2)[GalNAc(a1-3)]Gal(b1-4)GlcNAc(b1-2)Man
# Summary of the method: as §1
# [21] = biological target: Fuc(a1-2)[GalNAc(a1-3)]Gal(b1-4)GlcNAc(b1-2)Man(a1-3)[Fuc(a1-2)[GalNAc(a1-3)]Gal(b1-4)GlcNAc(b1-2)Man(a1-6)]Man(b1-4)GlcNAc(b1-4)GlcNAc
# Summary of the method: as §1
# [22] = biological target: Fuc(a1-2)[GalNAc(a1-3)]Gal(b1-4)GlcNAc(b1-2)Man(a1-3)[Fuc(a1-2)[GalNAc(a1-3)]Gal(b1-4)GlcNAc(b1-2)Man(a1-6)]Man(b1-4)GlcNAc(b1-4)[Fuc(a1-6)]GlcNAc
# Summary of the method: as §1
# [23] = biological target: Fuc(a1-2)[GalNAc(a1-3)]Gal(b1-4)GlcNAc(b1-3)Gal(b1-4)GlcNAc
# Summary of the method: as §1
# [24] = biological target: Fuc(a1-2)[GalNAc(a1-3)]Gal(b1-4)GlcNAc(b1-3)Gal(b1-4)GlcNAc(b1-3)Gal(b1-4)GlcNAc
# Summary of the method: as §1
# [25] = biological target: Fuc(a1-2)[GalNAc(a1-3)]Gal(b1-4)GlcNAc(b1-3)GalNAc
# Summary of the method: as §1
# [26] = biological target: Fuc(a1-2)[GalNAc(a1-3)]Gal(b1-4)GlcNAc(b1-3)[Fuc(a1-2)[GalNAc(a1-3)]Gal(b1-4)GlcNAc(b1-6)]GalNAc
# Summary of the method: as §1
# [27] = biological target: Fuc(a1-2)[GalNAc(a1-3)]Gal(b1-4)GlcNAc(b1-6)GalNAc
# Summary of the method: as §1
# [28] = biological target: Fuc(a1-2)[GalNAc(a1-3)]Gal(b1-4)[Fuc(a1-3)]GlcNAc
# Summary of the method: as §1
# [29] = biological target: Fuc(a1-2)[GalNAc(a1-3)]Gal(b1-4)[Fuc(a1-3)]GlcNAc(b1-3)GalNAc
# Summary of the method: as §1
# [30] = biological target: Fuc(a1-2)[GalNAc(a1-4)]Gal(b1-4)GlcNAc
# Summary of the method: as §1
# [31] = biological target: Fuc(a1-2)[GalNAc(b1-3)]Gal
# Summary of the method: as §1
# Fuc(a1-3)GlcNAc = biological target: Fuc(a1-3)GlcNAc
# Summary of the method: as §1
# [32] = biological target: Fuc(a1-3)[Gal(b1-4)]Glc6S
# Summary of the method: as §1
# [33] = biological target: Fuc(a1-3)[Gal(b1-4)]GlcNAc
# Summary of the method: as §1
# [34] = biological target: Fuc(a1-3)[Gal(b1-4)]GlcNAc(b1-2)Man
# Summary of the method: as §1
# [35] = biological target: Fuc(a1-3)[Gal(b1-4)]GlcNAc(b1-2)Man(a1-3)[Fuc(a1-3)[Gal(b1-4)]GlcNAc(b1-2)Man(a1-6)]Man(b1-4)GlcNAc(b1-4)GlcNAc
# Summary of the method: as §1
# [36] = biological target: Fuc(a1-3)[Gal(b1-4)]GlcNAc(b1-2)Man(a1-3)[Fuc(a1-3)[Gal(b1-4)]GlcNAc(b1-2)Man(a1-6)]Man(b1-4)GlcNAc(b1-4)[Fuc(a1-6)]GlcNAc
# Summary of the method: as §1
binder,measurement,setting,value
"HA-61200 (Pseudomonas aeruginosa), Q02SP8_PSEAB (protein) MNKCYALVWNVSQGCWNVVSEGSRRRGKPAGAKAAIASVLALLGATALAPAYALPSGGTVVGGSANGEIHLSGGNSLSVNQKVDKLIANWDSFSVAAGERVIFNQPSSSSIALNRVIGTKASDIQGRIDANGQVFLVNPNGVLFGRGAQVNVGGLVASTLDITDAEFNGNSSRYRFTGPSTNGVLNHGGAITAAEGGSIALLGAQVDNRGTVLAQMGGVGLGAGSDLTLNFDGNKLLDIRVDAGVANALASNGGLLKADGGRVLMAARTANALLNTVVNSQGAIEARSLRGKNGRIVLDG",glycan array binding signal (z-score),[1],0.438
same,glycan array binding signal (z-score),[2],0.235
same,glycan array binding signal (z-score),[3],0.218
same,glycan array binding signal (z-score),[4],0.378
same,glycan array binding signal (z-score),[5],-0.574
same,glycan array binding signal (z-score),[6],-0.521
same,glycan array binding signal (z-score),[7],-0.072
same,glycan array binding signal (z-score),[8],1.01
same,glycan array binding signal (z-score),[9],0.037
same,glycan array binding signal (z-score),[10],-0.045
same,glycan array binding signal (z-score),[11],-0.324
same,glycan array binding signal (z-score),[12],-0.03
same,glycan array binding signal (z-score),[13],0.017
same,glycan array binding signal (z-score),[14],-0.739
same,glycan array binding signal (z-score),[15],-0.684
same,glycan array binding signal (z-score),[16],0.951
same,glycan array binding signal (z-score),[17],-0.055
same,glycan array binding signal (z-score),[18],-0.302
same,glycan array binding signal (z-score),[19],-0.46
same,glycan array binding signal (z-score),[20],0.117
same,glycan array binding signal (z-score),[21],-0.808
same,glycan array binding signal (z-score),[22],1.6
same,glycan array binding signal (z-score),[23],0.054
same,glycan array binding signal (z-score),[24],0.917
same,glycan array binding signal (z-score),[25],-0.326
same,glycan array binding signal (z-score),[26],-0.788
same,glycan array binding signal (z-score),[27],-0.432
same,glycan array binding signal (z-score),[28],-0.283
same,glycan array binding signal (z-score),[29],1.74
same,glycan array binding signal (z-score),[30],-0.386
same,glycan array binding signal (z-score),[31],-0.608
same,glycan array binding signal (z-score),Fuc(a1-3)GlcNAc,-0.88
same,glycan array binding signal (z-score),[32],0.202
same,glycan array binding signal (z-score),[33],-0.322
same,glycan array binding signal (z-score),[34],0.155
same,glycan array binding signal (z-score),[35],-0.467
same,glycan array binding signal (z-score),[36],1.94

# In another format: results already given
binder	measurement	setting	value
HA-61200 (Pseudomonas aeruginosa), Q02SP8_PSEAB (protein) MNKCYALVWNVSQGCWNVVSEGSRRRGKPAGAKAAIASVLALLGATALAPAYALPSGGTVVGGSANGEIHLSGGNSLSVNQKVDKLIANWDSFSVAAGERVIFNQPSSSSIALNRVIGTKASDIQGRIDANGQVFLVNPNGVLFGRGAQVNVGGLVASTLDITDAEFNGNSSRYRFTGPSTNGVLNHGGAITAAEGGSIALLGAQVDNRGTVLAQMGGVGLGAGSDLTLNFDGNKLLDIRVDAGVANALASNGGLLKADGGRVLMAARTANALLNTVVNSQGAIEARSLRGKNGRIVLDG	glycan array binding signal (z-score)	[19]	-0.46
same	glycan array binding signal (z-score)	[20]	0.117
